Results on one molecule are retold here after paper PMC4559766.

Sequences of proteins named here, by UniProt entry; tags and fusion partners are left off. Residues count along the entry.
UniProt P02768, residues 25-609: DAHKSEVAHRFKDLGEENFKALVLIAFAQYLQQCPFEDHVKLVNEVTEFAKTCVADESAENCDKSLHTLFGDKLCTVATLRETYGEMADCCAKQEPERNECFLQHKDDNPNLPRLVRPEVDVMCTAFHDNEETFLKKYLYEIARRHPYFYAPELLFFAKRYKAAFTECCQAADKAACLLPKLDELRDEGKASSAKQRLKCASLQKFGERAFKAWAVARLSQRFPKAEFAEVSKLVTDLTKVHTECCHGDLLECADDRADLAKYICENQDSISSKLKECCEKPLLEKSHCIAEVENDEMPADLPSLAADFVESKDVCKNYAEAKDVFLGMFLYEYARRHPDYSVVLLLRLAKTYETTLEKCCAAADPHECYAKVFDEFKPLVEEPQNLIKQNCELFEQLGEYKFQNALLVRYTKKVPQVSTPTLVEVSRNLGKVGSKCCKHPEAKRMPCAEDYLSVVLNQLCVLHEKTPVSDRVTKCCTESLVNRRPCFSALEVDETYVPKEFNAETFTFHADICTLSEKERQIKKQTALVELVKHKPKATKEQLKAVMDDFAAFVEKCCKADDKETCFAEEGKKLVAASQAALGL
UniProt P07724, residues 25-608: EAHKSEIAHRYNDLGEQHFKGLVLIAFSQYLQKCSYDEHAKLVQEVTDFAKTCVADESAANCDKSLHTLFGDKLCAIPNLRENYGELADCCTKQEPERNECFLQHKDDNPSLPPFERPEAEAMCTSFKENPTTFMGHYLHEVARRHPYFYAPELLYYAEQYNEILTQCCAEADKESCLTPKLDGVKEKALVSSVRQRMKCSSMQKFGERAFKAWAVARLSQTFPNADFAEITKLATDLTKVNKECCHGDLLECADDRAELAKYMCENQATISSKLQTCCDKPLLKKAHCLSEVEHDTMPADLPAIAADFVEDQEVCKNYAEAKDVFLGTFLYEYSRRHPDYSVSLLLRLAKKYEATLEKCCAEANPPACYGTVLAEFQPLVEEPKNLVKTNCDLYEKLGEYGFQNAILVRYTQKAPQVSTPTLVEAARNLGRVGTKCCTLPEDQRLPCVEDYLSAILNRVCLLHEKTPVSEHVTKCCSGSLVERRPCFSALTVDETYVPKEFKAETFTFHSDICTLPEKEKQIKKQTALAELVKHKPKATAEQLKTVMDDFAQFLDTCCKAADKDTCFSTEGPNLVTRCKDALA

These are yes or no findings as the source states them, for the method shown. Some results given as binding are weak or reduced against the parent protein; the word gives no strength.

In assay [1] the target is Human serum albumin (human) (UniProt P02768). As to the kind of experiment: ELISA; HSA or MSA (100 μg/ml in 0.1 M NaHCO3) coated on the plate, blocked with 1% casein; phage clones in 4-fold serial dilution from 10^12 particles, 25 °C, […]; detected by rabbit anti-M13 phage antibody and HRP-conjugated goat anti-rabbit IgG, A405; only the target purified.
Assay [2] concerns the target Mouse serum albumin (mouse) (UniProt P07724). The assay is described as above.

As for WQRPSSW [7-mer peptide WQRPSSW shown on phage], the binding entry in assay [1] and in assay [2] was “binds” in each case.
